Measurements taken from PMC12376700.
No constants are given. Whether binding was seen depends on the method and setting. Binding seen in cells or lysates may run through a third protein. Here binding means that the protein was enriched with, or labelled near, the bait; the list need not be complete.

Protein sequences, listed by entry. Tags and fused reporters are not part of them.
UniProt O35864: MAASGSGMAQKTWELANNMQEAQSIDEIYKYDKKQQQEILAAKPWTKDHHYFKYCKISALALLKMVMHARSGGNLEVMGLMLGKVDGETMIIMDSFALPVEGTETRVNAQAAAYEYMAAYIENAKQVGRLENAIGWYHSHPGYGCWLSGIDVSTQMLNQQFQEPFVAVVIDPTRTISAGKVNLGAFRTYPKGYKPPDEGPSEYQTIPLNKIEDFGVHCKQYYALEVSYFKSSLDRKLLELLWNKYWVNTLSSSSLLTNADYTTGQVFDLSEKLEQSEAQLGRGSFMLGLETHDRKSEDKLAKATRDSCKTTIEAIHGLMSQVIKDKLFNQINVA
UniProt P56399: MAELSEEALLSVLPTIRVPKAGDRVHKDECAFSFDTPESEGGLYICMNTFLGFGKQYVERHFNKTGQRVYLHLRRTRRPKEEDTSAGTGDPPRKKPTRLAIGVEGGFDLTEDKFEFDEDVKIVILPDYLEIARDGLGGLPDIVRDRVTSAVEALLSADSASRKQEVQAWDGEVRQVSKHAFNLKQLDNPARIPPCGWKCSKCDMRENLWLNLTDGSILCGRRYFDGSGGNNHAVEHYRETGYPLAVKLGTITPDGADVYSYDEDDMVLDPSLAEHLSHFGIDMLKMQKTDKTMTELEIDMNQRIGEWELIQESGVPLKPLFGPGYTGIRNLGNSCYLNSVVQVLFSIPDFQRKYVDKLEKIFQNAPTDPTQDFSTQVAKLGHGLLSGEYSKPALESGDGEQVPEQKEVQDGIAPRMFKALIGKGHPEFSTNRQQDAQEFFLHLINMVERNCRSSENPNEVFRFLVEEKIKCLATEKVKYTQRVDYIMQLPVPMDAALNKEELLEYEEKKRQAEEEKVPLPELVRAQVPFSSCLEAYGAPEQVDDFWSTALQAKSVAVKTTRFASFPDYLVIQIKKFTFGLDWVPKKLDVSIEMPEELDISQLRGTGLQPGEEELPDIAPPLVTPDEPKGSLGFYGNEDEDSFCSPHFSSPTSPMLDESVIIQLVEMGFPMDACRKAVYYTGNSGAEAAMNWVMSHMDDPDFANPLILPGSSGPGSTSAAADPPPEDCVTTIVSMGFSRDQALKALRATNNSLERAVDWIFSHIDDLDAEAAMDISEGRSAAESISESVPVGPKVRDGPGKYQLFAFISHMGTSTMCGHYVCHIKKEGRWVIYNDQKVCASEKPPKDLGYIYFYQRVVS
UniProt P52479: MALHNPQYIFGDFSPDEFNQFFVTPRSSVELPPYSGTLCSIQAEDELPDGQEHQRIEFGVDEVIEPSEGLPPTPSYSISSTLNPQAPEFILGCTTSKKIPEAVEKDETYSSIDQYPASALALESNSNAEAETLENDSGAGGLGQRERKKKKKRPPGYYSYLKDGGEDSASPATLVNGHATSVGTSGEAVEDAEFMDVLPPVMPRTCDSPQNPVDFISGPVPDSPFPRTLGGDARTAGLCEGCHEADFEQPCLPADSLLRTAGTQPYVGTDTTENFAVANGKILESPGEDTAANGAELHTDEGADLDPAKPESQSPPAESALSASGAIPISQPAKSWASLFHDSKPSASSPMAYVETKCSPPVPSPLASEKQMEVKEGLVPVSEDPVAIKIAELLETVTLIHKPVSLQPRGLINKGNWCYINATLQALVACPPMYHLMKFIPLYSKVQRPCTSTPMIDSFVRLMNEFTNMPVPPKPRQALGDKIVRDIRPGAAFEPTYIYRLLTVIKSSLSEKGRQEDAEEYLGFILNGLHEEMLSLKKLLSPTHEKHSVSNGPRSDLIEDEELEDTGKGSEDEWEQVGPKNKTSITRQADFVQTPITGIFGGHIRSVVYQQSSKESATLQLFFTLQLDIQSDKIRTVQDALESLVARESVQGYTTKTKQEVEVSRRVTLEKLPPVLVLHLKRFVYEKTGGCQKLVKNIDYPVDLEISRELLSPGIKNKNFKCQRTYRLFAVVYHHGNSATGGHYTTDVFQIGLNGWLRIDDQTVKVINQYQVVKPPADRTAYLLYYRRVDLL
UniProt Q9JMA1: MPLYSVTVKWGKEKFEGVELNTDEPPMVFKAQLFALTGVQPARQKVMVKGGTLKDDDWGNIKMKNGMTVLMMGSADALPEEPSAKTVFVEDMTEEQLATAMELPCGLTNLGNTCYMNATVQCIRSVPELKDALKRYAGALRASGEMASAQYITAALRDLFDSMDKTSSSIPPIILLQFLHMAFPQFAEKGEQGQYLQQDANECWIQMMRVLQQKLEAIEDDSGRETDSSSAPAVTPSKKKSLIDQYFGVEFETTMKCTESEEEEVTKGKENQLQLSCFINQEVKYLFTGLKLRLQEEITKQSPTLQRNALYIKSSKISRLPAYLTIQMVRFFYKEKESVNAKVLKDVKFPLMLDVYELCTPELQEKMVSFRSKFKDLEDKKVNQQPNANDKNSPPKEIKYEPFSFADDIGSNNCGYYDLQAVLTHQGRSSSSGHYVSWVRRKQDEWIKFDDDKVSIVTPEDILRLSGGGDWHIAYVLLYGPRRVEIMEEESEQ

Biological target: T1, SLC7A11 (mouse (endogenous in MLO-Y4)) (UniProt Q9WTR6)
T1 sequence: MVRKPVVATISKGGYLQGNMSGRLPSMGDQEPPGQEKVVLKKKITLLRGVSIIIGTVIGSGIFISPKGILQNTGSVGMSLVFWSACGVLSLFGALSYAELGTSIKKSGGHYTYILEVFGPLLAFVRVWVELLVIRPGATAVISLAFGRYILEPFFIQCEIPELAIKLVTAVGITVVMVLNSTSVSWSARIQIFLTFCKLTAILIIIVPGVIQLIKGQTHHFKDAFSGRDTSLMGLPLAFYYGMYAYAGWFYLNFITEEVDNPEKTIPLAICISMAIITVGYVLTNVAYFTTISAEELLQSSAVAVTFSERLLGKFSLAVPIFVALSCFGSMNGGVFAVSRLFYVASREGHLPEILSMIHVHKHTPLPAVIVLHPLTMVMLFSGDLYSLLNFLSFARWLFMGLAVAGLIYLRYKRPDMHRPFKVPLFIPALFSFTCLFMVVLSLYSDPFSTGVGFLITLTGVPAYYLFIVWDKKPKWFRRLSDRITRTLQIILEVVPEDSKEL
Test: affinity purification with mass spectrometry; anti-SLC7A11 antibody and protein A/G magnetic beads on MLO-Y4 lysate; SDS-PAGE, gel bands excised, LC-MS/MS; search against the Mus musculus database; hits cross-referenced with UbiBrowser

binding | Substance
binds | COPS5 (from UniProt O35864 1-334) (enzyme)
binds | USP5 (from UniProt P56399 1-858) (enzyme)
binds | USP10 (from UniProt P52479 1-792) (enzyme)
binds | USP14 (from UniProt Q9JMA1 1-493) (enzyme)
